Construct, isoform or probe ends are uncertain for at least one entry. A weaker result is weaker than the reference pair of the same experiment. Tags and fusion partners may be left off the protein sequences shown.
Target: T1, RamB-His (UniProt Q8NTD8)
T1 sequence (looked up, limits assumed): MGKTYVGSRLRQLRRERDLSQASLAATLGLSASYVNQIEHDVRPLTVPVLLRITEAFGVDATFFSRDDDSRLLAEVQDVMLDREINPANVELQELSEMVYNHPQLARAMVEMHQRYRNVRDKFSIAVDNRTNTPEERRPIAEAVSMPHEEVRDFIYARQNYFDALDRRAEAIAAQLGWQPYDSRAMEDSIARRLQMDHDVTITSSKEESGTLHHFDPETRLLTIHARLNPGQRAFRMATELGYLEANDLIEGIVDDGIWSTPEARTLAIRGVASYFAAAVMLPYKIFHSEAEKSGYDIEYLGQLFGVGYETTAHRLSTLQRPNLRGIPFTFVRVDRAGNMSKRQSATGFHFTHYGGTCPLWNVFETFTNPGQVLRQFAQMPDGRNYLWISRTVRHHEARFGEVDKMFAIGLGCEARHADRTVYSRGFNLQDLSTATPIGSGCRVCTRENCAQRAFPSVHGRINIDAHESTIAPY
Test: EMSA
Settings: EMSA: 100 mM Tris/HCl pH 7.5, 20% glycerol, 100 mM KCl, 20 mM MgCl2, 1 mM EDTA, 30 min room temperature, DNA 5-61 nM, pull-down bead equilibration: 20 mM Tris-HCl pH 7.5, recombinant protein, protein details: C-terminal His, probe letters rebuilt from the primers and the …

“CCCCTCGAGTAAAAAAGAGACTTGCTAAAAACCTGTGAGAATAATAAGAATCGGTGATTTTCGTTCCGCAGGGGTCGAAAATTGCCGATTTTTGTGATTAGAGTCTCCAAATGTTACGAGTGAGATGTGGGTAGTGGCAGAATTTGCCGAACGATAGCCCAGAGTTCATAAGTTGTTAACCAAATTAGCCTGAGTTAGTCATTTCAAGGTCTTAGGTTTTTAAGTCGTGAGCAATCCGGAGGGAAACTAGCCCGCCTACAGGATCTGCTCAGACGATGTCTTCACTTAAACCGGAAAGGCTTCCCCGTGAACCTCACTCTTAAGCGCTCCATCGCCCTTGTGGGCGCAGTTACTGCAGGCTCCTTCGCTCTTGTAGCTTGCTCCGACTCCAATGAGTCTGATTCCACCTCCTCATCTGCAGCTTCCACCGGTTCTTCCGATGCTGCATCCATTGAGGGCCTTTCCGGTGTTACCGGTCAGCTCGTTGCTGAAGGTGCATCTTCCCAGCAGTCCGCATCTAGACG (double strand) [RF0 (full-length pstS promoter)]”: binds (100-400-fold molar excess RamB).
“CGTCTAGATGCGGACTGCTGGGAAGATGCACCTTCAGCAACGAGCTGACCGGTAACACCGGAAAGGCCCTCAATGGATGCAGCATCGGAAGAACCGGTGGAAGCTGCAGATGAGGAGGTGGAATCAGACTCATTGGAGTCGGAGCAAGCTACAAGAGCGAAGGAGCCTGCAGTAACTGCGCCCACAAGGGCGATGGAGCGCTTAAGAGTGAGGTTCACGGGGAAGCCTTTCCGGTTTAAGTGAAGACATCGTCTGAGCAGATCCTGTAGGCGGGCTAGTTTCCCTCCGGATTGCTCACGACTTAAAAACCTAAGACCTTGAAATGACTAACTCAGGCTCGAGGGG (double strand) [R2F0]”: binds more weakly (100-fold molar excess RamB).
“CGTCTAGATGCGGACTGCTGGGAAGATGCACCTTCAGCAACGAGCTGACCGGTAACACCGGAAAGGCCCTCAATGGATGCAGCATCGGAAGAACCGGTGGAAGCTGCAGATGAGGAGGTGGAATCAGACTCATTGGAGTCGGAGCAAGCTACAAGAGCGAAGGAGCCTGCAGTAACTGCGCCCACAAGGGCGATGGAGCGCTTAAGAGTGAGGTTCACGGGGAAGCCTTTCCGGTTTAAGTGAAGACATCGTCTGAGCAGATCCTGTAGGCGGGCTAGTTTCCCTCCGGATTGCTCACGACTTAAAAACCTAAGACCTTGAAATGACTAACTCAGGCTAATTTGGTTAACAACTTATGAACTCTGGGCTATCGTTCGGCAAATTCTGCCACTACCCACATCTCACTCGTAACATTTGGAGACTCTAATCACAAAAATCGGCAATTTTCGACCCCTGCGGAACGAAAATCACCGATTCTTACTCGAGGGG (double strand) [R0F0]”: binds (100-fold molar excess RamB).
